Results published in the supplement of paper PMC10849652.
Some of the results follow.

Protein sequences, listed by entry. Tags and fused reporters are not part of them. Lines headed by an entry give the natural chain unless they say otherwise; changes in a name come on top.
UniProt Q9Y230, whole entry, looked up: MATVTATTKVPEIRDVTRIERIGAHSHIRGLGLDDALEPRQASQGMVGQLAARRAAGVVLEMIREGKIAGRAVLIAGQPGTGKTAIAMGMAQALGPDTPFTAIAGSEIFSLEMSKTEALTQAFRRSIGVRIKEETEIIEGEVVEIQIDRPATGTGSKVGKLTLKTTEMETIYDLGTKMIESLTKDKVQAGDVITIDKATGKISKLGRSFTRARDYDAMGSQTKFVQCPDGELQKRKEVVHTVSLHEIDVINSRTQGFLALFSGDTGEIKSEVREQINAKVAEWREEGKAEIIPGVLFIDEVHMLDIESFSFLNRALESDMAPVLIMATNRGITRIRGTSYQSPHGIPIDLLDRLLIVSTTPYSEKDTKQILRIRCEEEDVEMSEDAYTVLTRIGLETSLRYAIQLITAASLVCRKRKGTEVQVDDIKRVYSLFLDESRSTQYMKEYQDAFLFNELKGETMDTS
UniProt Q96BU1: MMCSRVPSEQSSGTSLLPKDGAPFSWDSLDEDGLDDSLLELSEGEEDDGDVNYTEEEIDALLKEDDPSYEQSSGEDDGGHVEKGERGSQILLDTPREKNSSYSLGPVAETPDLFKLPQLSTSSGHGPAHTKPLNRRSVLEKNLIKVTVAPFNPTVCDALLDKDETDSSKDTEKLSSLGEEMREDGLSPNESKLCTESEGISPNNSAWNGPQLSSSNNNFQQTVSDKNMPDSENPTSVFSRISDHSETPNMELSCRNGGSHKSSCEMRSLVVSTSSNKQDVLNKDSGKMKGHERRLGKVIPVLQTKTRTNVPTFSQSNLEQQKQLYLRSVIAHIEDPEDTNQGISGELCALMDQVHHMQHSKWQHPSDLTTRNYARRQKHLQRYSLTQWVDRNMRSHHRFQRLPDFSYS
UniProt Q5VWQ0: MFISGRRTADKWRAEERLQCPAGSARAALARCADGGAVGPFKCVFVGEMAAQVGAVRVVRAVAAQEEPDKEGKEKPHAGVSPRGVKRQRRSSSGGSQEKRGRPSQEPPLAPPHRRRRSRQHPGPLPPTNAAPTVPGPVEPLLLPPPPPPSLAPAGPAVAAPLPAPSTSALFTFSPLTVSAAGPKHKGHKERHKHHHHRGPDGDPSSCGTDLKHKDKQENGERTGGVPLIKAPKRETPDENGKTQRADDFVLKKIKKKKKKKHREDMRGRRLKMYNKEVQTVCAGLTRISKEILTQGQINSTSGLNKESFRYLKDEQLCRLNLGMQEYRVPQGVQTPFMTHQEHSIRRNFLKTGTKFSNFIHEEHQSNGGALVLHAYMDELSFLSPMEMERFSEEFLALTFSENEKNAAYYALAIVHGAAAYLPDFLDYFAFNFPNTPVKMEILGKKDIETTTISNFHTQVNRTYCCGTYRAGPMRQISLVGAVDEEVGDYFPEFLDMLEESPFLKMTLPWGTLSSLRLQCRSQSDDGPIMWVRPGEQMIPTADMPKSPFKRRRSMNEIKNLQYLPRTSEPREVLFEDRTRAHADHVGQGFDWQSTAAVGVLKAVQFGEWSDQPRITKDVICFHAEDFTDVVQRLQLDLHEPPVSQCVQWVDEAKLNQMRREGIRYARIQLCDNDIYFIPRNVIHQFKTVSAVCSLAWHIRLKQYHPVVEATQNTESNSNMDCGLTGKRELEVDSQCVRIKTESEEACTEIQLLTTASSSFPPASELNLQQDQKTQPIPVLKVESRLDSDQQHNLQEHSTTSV
UniProt Q9Y3A4: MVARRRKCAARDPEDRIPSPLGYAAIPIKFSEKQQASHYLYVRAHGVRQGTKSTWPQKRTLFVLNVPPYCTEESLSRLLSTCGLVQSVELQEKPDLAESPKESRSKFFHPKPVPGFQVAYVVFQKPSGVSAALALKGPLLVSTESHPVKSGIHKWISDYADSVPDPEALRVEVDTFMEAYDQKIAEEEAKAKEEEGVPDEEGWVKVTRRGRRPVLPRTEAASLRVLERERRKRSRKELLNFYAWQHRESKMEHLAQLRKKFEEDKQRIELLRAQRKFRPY
UniProt O00560: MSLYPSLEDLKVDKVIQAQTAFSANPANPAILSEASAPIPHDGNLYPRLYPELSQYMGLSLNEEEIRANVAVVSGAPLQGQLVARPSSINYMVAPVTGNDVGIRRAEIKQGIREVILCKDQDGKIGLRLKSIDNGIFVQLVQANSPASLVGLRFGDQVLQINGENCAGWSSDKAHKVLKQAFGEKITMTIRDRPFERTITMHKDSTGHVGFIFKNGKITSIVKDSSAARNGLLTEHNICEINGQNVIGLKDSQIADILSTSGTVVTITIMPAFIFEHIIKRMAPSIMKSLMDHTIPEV
UniProt Q96KG9: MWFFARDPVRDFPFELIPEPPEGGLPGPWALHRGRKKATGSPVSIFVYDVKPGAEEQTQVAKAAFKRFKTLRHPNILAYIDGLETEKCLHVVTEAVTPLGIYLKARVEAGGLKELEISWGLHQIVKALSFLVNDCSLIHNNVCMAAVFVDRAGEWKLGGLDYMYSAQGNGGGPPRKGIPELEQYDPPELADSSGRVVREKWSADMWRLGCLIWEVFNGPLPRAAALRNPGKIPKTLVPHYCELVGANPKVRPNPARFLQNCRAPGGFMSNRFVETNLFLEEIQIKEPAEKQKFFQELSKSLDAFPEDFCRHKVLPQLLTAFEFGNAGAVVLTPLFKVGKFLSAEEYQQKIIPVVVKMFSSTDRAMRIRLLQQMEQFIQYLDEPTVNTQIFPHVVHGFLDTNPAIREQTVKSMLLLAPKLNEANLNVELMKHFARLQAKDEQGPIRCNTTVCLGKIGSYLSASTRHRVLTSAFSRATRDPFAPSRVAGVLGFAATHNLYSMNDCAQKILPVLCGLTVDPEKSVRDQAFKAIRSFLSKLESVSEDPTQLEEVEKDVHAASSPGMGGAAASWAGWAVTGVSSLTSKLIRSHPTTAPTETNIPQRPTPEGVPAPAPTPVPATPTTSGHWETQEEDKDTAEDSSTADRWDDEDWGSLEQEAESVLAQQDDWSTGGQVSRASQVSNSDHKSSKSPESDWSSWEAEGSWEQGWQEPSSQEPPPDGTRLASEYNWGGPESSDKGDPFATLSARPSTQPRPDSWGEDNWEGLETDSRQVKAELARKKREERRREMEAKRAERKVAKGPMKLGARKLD
UniProt P25815: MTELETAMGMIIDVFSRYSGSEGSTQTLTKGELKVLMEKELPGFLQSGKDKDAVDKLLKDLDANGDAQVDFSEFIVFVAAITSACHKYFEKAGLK
UniProt Q15050: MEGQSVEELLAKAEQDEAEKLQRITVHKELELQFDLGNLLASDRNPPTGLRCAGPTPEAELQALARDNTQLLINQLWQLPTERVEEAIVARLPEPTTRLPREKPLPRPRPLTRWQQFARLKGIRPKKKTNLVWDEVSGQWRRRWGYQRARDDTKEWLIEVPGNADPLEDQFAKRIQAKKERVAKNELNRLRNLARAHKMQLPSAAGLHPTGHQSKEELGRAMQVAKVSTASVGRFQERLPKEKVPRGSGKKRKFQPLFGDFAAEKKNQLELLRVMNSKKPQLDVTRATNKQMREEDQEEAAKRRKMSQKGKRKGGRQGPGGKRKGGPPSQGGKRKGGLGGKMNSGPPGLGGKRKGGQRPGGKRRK
UniProt Q9BRK5: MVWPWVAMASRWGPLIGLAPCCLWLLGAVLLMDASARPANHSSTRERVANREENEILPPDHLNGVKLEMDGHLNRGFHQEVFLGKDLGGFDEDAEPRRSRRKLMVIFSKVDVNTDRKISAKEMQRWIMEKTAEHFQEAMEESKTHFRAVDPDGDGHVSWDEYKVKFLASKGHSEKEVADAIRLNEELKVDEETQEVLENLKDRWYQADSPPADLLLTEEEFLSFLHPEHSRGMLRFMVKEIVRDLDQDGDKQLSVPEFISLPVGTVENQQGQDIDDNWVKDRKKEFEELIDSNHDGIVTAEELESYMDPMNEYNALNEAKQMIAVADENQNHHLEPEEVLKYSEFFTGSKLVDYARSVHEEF
UniProt Q9BWG6: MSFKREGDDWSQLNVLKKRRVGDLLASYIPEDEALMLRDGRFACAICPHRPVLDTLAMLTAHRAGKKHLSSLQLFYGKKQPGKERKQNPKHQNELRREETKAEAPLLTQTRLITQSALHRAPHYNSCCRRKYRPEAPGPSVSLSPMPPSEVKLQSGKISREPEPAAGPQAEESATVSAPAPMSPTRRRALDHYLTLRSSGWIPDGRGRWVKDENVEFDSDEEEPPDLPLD
UniProt Q15437: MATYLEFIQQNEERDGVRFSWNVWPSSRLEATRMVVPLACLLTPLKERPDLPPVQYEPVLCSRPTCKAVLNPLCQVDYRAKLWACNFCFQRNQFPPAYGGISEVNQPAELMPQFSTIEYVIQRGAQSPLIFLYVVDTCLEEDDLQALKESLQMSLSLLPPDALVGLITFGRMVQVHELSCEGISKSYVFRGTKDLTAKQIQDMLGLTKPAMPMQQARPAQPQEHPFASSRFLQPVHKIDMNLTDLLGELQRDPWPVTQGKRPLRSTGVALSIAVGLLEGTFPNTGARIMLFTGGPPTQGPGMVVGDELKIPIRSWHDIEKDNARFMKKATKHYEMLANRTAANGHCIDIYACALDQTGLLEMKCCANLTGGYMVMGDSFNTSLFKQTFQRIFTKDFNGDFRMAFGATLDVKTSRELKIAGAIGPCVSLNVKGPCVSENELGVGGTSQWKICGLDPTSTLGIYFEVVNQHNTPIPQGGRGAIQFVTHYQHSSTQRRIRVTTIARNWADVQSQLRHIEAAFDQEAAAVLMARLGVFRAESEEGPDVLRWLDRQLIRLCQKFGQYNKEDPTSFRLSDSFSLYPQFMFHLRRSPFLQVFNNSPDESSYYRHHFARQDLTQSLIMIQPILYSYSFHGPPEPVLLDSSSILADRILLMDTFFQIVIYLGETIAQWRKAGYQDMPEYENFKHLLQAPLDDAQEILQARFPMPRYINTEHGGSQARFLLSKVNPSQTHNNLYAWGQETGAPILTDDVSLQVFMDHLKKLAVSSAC
UniProt Q96BY9: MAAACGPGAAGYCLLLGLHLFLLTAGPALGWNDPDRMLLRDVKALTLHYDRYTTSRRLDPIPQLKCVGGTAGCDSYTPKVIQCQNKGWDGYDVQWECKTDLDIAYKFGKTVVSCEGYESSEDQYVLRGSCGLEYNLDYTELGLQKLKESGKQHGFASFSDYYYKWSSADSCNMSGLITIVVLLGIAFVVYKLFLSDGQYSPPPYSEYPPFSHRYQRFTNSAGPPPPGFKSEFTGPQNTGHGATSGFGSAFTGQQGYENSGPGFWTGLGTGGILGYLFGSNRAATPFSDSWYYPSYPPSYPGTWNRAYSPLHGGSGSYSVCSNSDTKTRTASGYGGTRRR
UniProt A6ZKI3: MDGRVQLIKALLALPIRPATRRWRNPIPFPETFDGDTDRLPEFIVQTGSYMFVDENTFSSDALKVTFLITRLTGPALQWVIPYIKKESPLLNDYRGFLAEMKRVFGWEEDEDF
UniProt Q14684: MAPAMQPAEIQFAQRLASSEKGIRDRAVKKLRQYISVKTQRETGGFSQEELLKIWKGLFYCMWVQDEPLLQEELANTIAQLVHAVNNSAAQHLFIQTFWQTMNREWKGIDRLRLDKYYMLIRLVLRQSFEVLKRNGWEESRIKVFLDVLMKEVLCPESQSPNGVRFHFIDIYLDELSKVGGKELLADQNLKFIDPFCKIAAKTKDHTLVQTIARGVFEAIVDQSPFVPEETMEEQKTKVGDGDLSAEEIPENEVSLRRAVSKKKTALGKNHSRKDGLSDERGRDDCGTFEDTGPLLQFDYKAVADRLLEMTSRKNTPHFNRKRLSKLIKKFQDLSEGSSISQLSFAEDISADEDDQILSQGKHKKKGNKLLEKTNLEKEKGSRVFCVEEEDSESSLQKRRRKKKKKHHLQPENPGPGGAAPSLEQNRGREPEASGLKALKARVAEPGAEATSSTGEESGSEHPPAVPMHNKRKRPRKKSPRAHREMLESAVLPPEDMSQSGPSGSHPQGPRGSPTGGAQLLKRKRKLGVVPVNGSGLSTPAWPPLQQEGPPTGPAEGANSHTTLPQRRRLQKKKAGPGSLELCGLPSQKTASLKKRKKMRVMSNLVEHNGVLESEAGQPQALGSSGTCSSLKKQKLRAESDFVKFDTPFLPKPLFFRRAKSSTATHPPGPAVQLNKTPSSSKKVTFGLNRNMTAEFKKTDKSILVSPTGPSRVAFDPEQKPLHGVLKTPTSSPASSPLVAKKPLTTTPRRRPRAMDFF
UniProt Q9Y2B1: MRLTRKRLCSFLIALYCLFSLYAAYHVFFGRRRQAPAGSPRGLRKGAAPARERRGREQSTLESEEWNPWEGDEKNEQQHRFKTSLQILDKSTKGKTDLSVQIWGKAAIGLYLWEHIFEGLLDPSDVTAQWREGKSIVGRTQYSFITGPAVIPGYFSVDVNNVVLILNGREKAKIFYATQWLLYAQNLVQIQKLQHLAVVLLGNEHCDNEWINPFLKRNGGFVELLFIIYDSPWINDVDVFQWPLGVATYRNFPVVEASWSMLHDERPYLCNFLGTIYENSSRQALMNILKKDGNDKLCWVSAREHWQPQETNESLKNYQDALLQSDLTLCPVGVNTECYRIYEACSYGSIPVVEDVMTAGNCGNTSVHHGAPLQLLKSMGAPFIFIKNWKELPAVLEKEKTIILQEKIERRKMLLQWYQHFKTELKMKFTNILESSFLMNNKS

Assays:
Assay in all cases: log2 fold change, soluble protein after heating vs DMSO (PISA); higher = thermal stabilisation; K562 cells, 10 uM, 30 min; active = over 0.2 and 3.5 SD of the protein, either way, in both replicates (recomputed)
[1] = compound: CC[C@@H]1C(=O)N(C)c2cnc(Nc3ccc(C(=O)NC4CCN(C)CC4)cc3OC)nc2N1C1CCCC1
Method in brief: (§1)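 Thermal stability values are relative to control samples and come from duplicates. They are expressed as log2 fold changes. For measurement, K562 cells (2×10^6 cells/mL) received 10 μM compound for 30 min, and aliquots were heated for 3 min over 48°C-58°C, pooled, and extracted at 4°C in PBS with 0.5% NP-40. Soluble protein, the supernatant after 21,000xg for 90 min, was quantified by TMTpro 16plex LC-MS/MS with equalised channel sums.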

[2] = compound: CC[C@@H]1C(=O)N(C)c2cnc(Nc3ccc(C(=O)N[C@H]4CC[C@H](N5CCN(CC6CC6)CC5)CC4)cc3OC)nc2N1C(C)C [volasertib]
Method in brief: as §1

[3] = compound: CC[C@H](C)N1C=C(C2=C(C=C(C=C21)C3=CN=C(C=C3)N4CCNCC4)C(=O)NCC5=C(C=C(NC5=O)C)C)C
Method in brief: as §1

[4] = compound: CC[C@H](C)[C@@H](C(=O)N[C@@H]([C@@H](C)O)C(=O)N[C@@H](CC(C)C)C(=O)[C@]1(CO1)C)NC(=O)[C@H]([C@@H](C)CC)N(C)C(=O)C [epoxomicin]
Method in brief: as §1

[5] = compound: CCn1c(C(=O)N(C2CC2)C2CC2)cc2c3c(ncn3C)c(Nc3cc(C)n(C)n3)nc21
Method in brief: as §1

[6] = compound: CCn1cc(-c2ccnc3[nH]c(-c4cccc(CN(C)C)c4)cc23)c(-c2ccc(NC(=O)N(C)C)cc2)n1
Method in brief: as §1

[7] = compound: CN(C)CC(=O)Nc1ccc2[nH]c(=O)c3ccccc3c2c1
Method in brief: as §1

[8] = compound: CN(CCOC1=CC=C(C=C1)C[C@H]2C(=O)NC(=O)S2)C3=CC=CC=N3 (racemic) [rosiglitazone]
Method in brief: as §1

[9] = compound: CN1C2=C(C3=C1C(=O)N(N=C3)CC4=CC(=CC=C4)N)SC(=C2)S(=O)C
Method in brief: as §1

[10] = compound: CN1CCC(CNc2ccc3ncc(-c4cccc(OC(F)(F)F)c4)n3n2)CC1
Method in brief: as §1

Measured: log2 fold change

RUVBL2 (UniProt Q9Y230)
inactive: [1] 0.1 | [2] 0.173 | [3] -0.032 | [4] 0.01 | [5] 0.025 | [6] -0.043 | [7] 0.013 | [8] -0.035 | [9] -0.032 | [10] 0.172

RSU1 (UniProt Q15404)
inactive: [1] 0.004 | [2] 0.051 | [3] -0.006 | [4] -0.027 | [5] -0.001 | [6] 0.01 | [7] -0.027 | [8] -0.011 | [9] -0.062 | [10] -0.003

S100PBP (UniProt Q96BU1)
inactive: [1] -0.027 | [2] 0.011 | [3] 0.01 | [4] 0.113 | [5] 0.053 | [6] 0.047 | [7] 0.029 | [8] 0.062 | [10] 0.073

SDE2 (UniProt Q6IQ49)
inactive: [1] -0.077 | [2] -0.152 | [3] -0.058 | [4] 0.044 | [5] -0.005 | [6] 0.011 | [7] 0.007 | [8] 0.037 | [9] -0.029 | [10] -0.067

SBNO1 (UniProt A3KN83)
inactive: [1] -0.022 | [2] -0.115 | [3] 0.015 | [4] 0.056 | [5] -0.007 | [6] -0.003 | [7] -0.008 | [8] 0.005 | [9] -0.046 | [10] 0.051

RSBN1 (UniProt Q5VWQ0)
inactive: [1] 0.185 | [2] 0.421 | [3] 0.016 | [4] -0.187 | [5] -0.068 | [6] 0.15 | [7] -0.111 | [8] -0.047 | [9] 0.256 | [10] 0.213

RRP7A (UniProt Q9Y3A4)
inactive: [1] -0.018 | [2] 0.12 | [3] 0.007 | [4] -0.066 | [5] 0.09 | [7] -0.047 | [8] 0.022

RTN4IP1 (UniProt Q8WWV3)
active: [8] 0.965
inactive: [1] -0.118 | [2] -0.196 | [3] -0.059 | [4] -0.02 | [6] -0.079 | [7] -0.003 | [9] -0.219 | [10] -0.12

SCO1 (UniProt O75880)
inactive: [1] -0.064 | [2] -0.243 | [3] -0.019 | [4] 0.005 | [5] 0.004 | [6] -0.016 | [7] -0.041 | [8] 0.007 | [9] -0.007 | [10] -0.074

SEC24C (UniProt P53992)
inactive: [1] -0.06 | [2] -0.185 | [3] 0.069 | [4] 0.062 | [5] -0.019 | [6] -0.064 | [7] 0.073 | [8] 0.07 | [9] -0.027 | [10] -0.018

SDCBP (UniProt O00560)
inactive: [1] -0.223 | [2] -0.249 | [3] 0.01 | [4] -0.043 | [6] -0.01 | [7] -0.061 | [9] 0.045 | [10] -0.229

RWDD4 (UniProt Q6NW29)
inactive: [1] -0.109 | [2] -0.354 | [3] -0.12 | [4] -0.056 | [5] 0.008 | [6] 0.009 | [7] -0.003 | [8] 0.067 | [9] 0.035 | [10] -0.111

SCYL1 (UniProt Q96KG9)
inactive: [1] -0.079 | [2] -0.178 | [3] 0.028 | [4] 0.032 | [5] -0.022 | [6] -0.058 | [7] -0.01 | [8] 0.034 | [9] -0.01 | [10] -0.001

SEC22B (UniProt O75396)
inactive: [1] -0.097 | [2] -0.15 | [3] 0.042 | [4] 0.009 | [5] -0.034 | [6] -0.032 | [7] 0.067 | [8] 0.004 | [9] -0.047 | [10] 0.08

S100P (UniProt P25815)
inactive: [1] 0.003 | [2] -0.023 | [3] 0.019 | [4] 0.221 | [5] 0.099 | [6] 0.025 | [7] -0.018 | [8] 0.044 | [9] 0.088 | [10] 0.153

SCYL2 (UniProt Q6P3W7)
inactive: [1] -0.021 | [2] -0.222 | [3] 0.025 | [4] 0.026 | [5] -0.02 | [6] -0.022 | [7] 0.005 | [8] 0.026 | [9] -0.004 | [10] -0.011

SDHAF3 (UniProt Q9NRP4)
inactive: [1] -0.083 | [2] 0.043 | [3] 0.002 | [4] 0.039 | [5] 0.022 | [6] 0.041 | [7] 0.002 | [8] -0.018 | [9] -0.011 | [10] -0.182

S100A6 (UniProt P06703)
inactive: [1] -0.083 | [2] 0.178 | [3] 0.042 | [4] 0.029 | [5] 0.084 | [6] -0.097 | [8] -0.02 | [9] 0.01 | [10] 0.131

RRS1 (UniProt Q15050)
inactive: [1] 0.291 | [2] 0.286 | [3] 0.023 | [4] -0.381 | [6] 0.143 | [7] -0.029 | [9] 0.28 | [10] 0.268

SCGB1D2 (UniProt O95969)
inactive: [1] -0.006 | [2] -0.242 | [3] 0.253 | [4] 0.987 | [5] -0.111 | [7] -0.381 | [8] 1.05 | [9] 0.239

SDF4 (UniProt Q9BRK5)
inactive: [1] -0.007 | [2] -0.151 | [3] 0.008 | [4] 0.017 | [5] 0.008 | [6] 0.025 | [7] 0.01 | [8] -0.003 | [9] -0.014 | [10] 0.166

SCNM1 (UniProt Q9BWG6)
inactive: [1] 0.223 | [2] 0.141 | [3] 0.045 | [4] 0 | [5] 0.016 | [6] 0.009 | [8] -0.013 | [9] 0.003 | [10] 0.066

SEC23B (UniProt Q15437)
inactive: [1] -0.005 | [2] -0.168 | [3] 0.031 | [4] 0.025 | [5] -0.025 | [6] -0.006 | [7] 0.026 | [8] 0.024 | [9] -0.031 | [10] -0.014

SAP130 isoform 3 (UniProt Q9H0E3)
inactive: [6] 0.022 | [7] 0.104 | [10] 0.119

SARAF (UniProt Q96BY9)
inactive: [1] 0.145 | [2] 0.155 | [4] 0.089 | [6] -0.066 | [7] 0.049 | [8] -0.021 | [9] 0.032 | [10] -0.147

SDCCAG8 (UniProt Q86SQ7)
inactive: [1] -0.034 | [2] -0.023 | [5] -0.111 | [6] -0.247 | [7] 0.095 | [9] 0.07 | [10] 0.086

Two consecutive records from above, for reference:
SAP130 isoform 3 (UniProt Q9H0E3)
inactive: [6] 0.022 | [7] 0.104 | [10] 0.119

SARAF (UniProt Q96BY9)
inactive: [1] 0.145 | [2] 0.155 | [4] 0.089 | [6] -0.066 | [7] 0.049 | [8] -0.021 | [9] 0.032 | [10] -0.147

(cont.)

SATB2 (UniProt Q9UPW6)
inactive: [6] -0.354 | [10] -0.557

RTL10 (UniProt Q7L3V2)
inactive: [2] -0.27 | [4] 0.258 | [6] -0.026 | [7] -0.286 | [9] -0.013 | [10] 0.01

RTL8C (UniProt A6ZKI3)
inactive: [1] -0.066 | [2] -0.072 | [4] 0.265 | [6] 0.082 | [7] 0.011 | [9] -0.105 | [10] 0.024

SDHB, A0A087WXX8
inactive: [2] -0.026 | [3] -0.026 | [5] -0.109 | [6] 0.1 | [7] 0.076 | [8] 0.094 | [9] -0.055 | [10] -0.041

SAMD4A (UniProt Q9UPU9)
inactive: [4] -0.23 | [5] -0.019 | [9] 0.04

SBF2 (UniProt Q86WG5)
inactive: [4] 0.072 | [6] -0.059 | [9] -0.091 | [10] -0.385

RTN4 isoform 2 (UniProt Q9NQC3)
inactive: [2] 0.033 | [4] -0.117 | [5] 0.22 | [6] -0.249 | [7] -0.004 | [8] 0.003 | [9] -0.077 | [10] 0.265

RRP1B (UniProt Q14684)
inactive: [1] -0.194 | [4] -0.097 | [5] -0.048 | [6] 0.142 | [7] -0.043 | [9] 0.083 | [10] -0.054

SAFB2 (UniProt K7EQU4)
inactive: [3] -0.095 | [4] -0.11

RXYLT1 (UniProt Q9Y2B1)
inactive: [2] 0.094 | [3] -0.117 | [5] 0.094

S100A1 (UniProt P23297)
inactive: [3] -0.085 | [4] 0.104 | [5] 0.145 | [8] 0.061
